Here are results for 16 molecules from paper PMC6659704.

The chains behind the UniProt entries cited, without tags or fusion partners. Where a name states a change or a piece, a line headed by the entry shows the natural chain unless it says otherwise.
UniProt Q9SGH2: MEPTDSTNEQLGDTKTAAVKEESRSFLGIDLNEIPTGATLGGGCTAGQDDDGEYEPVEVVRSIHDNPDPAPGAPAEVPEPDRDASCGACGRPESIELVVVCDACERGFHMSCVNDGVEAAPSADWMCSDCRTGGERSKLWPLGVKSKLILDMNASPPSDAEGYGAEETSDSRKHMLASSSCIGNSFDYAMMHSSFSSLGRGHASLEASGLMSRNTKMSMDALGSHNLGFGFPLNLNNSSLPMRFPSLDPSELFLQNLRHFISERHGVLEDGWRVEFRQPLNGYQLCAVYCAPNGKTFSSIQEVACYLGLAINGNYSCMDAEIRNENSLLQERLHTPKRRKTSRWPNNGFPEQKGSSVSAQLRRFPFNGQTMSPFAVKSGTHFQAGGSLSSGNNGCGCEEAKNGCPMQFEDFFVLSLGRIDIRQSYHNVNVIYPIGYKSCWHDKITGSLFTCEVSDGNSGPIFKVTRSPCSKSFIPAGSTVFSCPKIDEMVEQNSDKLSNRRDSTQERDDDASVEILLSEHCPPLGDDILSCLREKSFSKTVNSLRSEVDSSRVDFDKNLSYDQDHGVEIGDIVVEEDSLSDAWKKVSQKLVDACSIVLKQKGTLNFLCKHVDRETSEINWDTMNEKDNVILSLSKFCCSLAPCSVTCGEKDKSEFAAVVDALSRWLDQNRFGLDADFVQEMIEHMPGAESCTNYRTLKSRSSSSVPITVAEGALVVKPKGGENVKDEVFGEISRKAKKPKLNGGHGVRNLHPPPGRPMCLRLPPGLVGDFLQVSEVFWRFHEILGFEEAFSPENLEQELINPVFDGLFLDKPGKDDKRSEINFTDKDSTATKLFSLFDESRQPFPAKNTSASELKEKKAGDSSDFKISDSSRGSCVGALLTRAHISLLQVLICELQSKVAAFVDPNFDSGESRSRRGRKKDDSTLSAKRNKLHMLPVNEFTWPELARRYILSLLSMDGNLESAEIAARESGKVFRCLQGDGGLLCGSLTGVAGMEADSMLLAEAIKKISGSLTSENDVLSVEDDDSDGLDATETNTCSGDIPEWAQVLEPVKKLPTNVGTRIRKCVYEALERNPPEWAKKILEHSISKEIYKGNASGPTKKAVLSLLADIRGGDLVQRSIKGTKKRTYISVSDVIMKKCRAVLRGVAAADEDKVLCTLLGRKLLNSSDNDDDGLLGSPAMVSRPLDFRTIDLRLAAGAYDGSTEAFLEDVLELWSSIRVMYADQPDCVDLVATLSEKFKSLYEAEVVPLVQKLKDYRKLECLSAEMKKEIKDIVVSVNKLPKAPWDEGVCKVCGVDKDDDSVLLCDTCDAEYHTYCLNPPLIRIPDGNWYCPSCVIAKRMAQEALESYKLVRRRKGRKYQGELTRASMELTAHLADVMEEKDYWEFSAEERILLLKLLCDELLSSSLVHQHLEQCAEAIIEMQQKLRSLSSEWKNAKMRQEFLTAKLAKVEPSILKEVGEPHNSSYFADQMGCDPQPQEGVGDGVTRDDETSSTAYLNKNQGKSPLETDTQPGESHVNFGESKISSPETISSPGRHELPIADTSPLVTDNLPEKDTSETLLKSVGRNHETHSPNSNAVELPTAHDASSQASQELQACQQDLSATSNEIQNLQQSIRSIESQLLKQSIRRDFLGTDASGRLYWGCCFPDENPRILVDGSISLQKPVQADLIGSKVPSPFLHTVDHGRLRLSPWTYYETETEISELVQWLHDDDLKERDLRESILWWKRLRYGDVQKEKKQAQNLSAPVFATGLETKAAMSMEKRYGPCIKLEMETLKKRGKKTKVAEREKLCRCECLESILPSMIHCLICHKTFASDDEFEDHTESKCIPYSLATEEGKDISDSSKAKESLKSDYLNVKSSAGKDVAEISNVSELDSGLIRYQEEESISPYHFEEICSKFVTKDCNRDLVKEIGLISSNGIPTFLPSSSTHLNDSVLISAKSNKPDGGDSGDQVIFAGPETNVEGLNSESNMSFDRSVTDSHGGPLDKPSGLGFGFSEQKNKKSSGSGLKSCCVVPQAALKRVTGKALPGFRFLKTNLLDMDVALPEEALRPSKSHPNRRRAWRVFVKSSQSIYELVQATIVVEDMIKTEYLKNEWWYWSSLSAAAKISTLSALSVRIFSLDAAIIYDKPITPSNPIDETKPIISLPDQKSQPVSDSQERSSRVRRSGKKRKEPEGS
UniProt Q9FMR9: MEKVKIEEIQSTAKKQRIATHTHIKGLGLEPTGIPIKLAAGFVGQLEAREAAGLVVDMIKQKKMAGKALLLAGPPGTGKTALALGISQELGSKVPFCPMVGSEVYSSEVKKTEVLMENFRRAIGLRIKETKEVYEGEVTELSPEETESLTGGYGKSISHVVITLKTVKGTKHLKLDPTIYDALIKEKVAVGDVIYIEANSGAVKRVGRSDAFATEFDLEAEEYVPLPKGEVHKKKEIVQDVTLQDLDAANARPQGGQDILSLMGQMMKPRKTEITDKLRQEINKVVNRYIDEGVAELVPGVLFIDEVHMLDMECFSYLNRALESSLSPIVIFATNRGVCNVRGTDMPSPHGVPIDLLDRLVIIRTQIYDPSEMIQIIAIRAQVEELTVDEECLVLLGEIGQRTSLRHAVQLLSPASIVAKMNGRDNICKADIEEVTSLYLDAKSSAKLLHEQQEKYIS
UniProt Q8RWY3: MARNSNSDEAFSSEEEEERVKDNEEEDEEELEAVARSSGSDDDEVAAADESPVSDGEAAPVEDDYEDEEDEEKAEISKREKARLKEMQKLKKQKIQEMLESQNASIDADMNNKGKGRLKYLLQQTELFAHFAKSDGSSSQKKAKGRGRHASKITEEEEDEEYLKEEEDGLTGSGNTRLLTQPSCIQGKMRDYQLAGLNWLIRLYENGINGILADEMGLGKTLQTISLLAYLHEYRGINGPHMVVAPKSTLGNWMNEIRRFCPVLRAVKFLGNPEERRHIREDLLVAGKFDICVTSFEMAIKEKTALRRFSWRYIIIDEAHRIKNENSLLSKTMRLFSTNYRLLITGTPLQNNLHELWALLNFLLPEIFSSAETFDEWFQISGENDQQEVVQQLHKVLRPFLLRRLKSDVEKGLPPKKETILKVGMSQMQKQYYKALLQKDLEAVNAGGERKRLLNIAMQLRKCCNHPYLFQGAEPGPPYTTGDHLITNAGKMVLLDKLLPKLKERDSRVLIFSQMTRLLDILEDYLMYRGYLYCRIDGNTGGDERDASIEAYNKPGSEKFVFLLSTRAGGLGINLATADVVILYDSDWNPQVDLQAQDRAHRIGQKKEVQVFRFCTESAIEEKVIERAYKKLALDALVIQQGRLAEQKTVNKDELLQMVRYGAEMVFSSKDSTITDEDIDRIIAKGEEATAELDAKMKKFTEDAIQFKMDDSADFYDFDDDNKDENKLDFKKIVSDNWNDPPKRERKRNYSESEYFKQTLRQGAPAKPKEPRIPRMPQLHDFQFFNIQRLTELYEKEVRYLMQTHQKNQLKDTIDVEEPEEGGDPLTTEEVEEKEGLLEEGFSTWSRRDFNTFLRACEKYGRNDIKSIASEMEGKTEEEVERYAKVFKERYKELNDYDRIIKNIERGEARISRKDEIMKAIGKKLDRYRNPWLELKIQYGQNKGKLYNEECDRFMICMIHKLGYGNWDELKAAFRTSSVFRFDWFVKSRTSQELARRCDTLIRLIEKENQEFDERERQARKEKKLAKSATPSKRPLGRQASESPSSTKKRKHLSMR
UniProt Q9FJW0: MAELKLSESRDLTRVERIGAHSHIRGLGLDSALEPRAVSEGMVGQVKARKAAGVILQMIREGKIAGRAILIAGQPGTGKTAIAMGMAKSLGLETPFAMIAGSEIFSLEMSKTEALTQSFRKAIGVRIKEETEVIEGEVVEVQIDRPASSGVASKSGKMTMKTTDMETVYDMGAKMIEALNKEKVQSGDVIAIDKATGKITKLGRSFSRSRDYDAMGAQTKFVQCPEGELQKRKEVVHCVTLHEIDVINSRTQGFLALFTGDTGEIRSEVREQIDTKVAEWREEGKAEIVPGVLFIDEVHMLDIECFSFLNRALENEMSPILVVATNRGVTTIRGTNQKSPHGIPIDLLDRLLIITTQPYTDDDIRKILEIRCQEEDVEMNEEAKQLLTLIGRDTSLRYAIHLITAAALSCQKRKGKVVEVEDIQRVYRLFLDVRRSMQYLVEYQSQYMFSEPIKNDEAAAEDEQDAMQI
UniProt F4JY24: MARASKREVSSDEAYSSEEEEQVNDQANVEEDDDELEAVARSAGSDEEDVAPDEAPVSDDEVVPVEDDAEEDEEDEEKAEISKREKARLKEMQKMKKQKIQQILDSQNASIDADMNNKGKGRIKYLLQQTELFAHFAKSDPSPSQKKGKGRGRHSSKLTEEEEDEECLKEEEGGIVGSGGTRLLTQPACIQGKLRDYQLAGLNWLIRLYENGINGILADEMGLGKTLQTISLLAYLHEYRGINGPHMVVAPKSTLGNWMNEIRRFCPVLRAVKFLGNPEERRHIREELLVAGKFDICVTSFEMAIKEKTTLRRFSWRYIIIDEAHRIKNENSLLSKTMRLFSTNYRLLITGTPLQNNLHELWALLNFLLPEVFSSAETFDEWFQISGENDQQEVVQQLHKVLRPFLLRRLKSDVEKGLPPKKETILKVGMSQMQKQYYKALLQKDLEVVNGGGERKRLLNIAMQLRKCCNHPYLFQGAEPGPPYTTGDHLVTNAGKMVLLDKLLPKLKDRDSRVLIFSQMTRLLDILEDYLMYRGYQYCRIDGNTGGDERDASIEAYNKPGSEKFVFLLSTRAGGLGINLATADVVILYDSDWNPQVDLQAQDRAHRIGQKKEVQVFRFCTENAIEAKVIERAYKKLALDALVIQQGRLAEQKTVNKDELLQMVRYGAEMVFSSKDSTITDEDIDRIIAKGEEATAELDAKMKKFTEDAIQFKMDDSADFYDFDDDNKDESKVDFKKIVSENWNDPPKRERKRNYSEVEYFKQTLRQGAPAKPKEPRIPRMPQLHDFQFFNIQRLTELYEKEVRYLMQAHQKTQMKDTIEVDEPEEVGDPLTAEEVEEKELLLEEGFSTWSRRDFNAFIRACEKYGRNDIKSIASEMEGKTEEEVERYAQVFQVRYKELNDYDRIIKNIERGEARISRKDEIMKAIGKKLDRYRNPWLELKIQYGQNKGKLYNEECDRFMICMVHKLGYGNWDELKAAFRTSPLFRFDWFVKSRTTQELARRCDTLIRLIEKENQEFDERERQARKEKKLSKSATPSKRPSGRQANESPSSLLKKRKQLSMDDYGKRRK

The target in test [1] is T1, ARP6-9xMYC (Arabidopsis) (UniProt Q8LGE3).
T1 sequence: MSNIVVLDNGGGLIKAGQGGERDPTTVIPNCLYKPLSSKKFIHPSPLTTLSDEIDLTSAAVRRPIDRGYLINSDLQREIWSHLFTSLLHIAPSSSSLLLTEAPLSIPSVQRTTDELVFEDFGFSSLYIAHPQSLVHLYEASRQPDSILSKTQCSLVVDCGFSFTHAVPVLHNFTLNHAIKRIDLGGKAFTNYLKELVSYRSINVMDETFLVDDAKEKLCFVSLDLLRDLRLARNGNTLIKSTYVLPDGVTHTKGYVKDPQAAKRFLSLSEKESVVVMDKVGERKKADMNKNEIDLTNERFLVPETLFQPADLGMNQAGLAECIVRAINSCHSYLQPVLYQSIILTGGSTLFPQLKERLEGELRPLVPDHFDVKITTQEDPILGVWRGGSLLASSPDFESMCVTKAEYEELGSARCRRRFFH
Kind of test: affinity purification with mass spectrometry; ARP6-9xMyc line, flower lysate, monoclonal 9E10 coupled to magnetic beads; six washes with IP buffer at 4 °C; proteins released by 3C cleavage overnight at 5 °C; wild type as control.

For test [2], the target named is MBD9-9xMYC (Arabidopsis) (UniProt Q9SGH2). Kind of test: affinity purification with mass spectrometry; MBD9-9xMyc line, flower lysate, monoclonal 9E10 coupled to magnetic beads; six washes with IP buffer at 4 °C; eluted with 8 M urea in 50 mM Tris pH 8.5; wild type as control.
The target in test [3] is MBD9-3xFLAG (Arabidopsis) (UniProt Q9SGH2). Kind of test: affinity purification with mass spectrometry; anti-FLAG M2 magnetic beads in lysate of ~10 g flowers of ARP6-3xFLAG (T3) or MBD9-3xFLAG (T4) lines, Col-0 as negative control; IP buffer, 4 °C, 2 h; eluted with 3X FLAG peptides in TBS, TCA precipitated.
In test [4] the target is T2, ARP6-3xFLAG (Arabidopsis) (UniProt Q8LGE3).
T2 sequence: T1 sequence
Described as above.

These are yes or no findings as the source states them, for the method shown. Binding seen in cells or lysates may run through a third protein. A yes stands for co-enrichment or nearness to the bait. Other partners may have been found. For some of these results: No binding means not detected with the bait. For some of these results: Where a sequence is shown, tags or fusion partners need not be part of it.

With “RuvB-like protein 1 (from UniProt Q9FMR9 1-458)”, the binding result in test [1], in test [2], in test [3] and in test [4] was “binds” throughout.
Take CHR11 (from UniProt Q8RWY3 1-1056): the binding entry in test [1] was “no binding”; in test [2] it was “binds”; in test [3] it was “binds”; in test [4], “no binding”.
Regarding “RuvB-like protein 2 (from UniProt Q9FJW0)”, the binding result in test [1], in test [2], in test [3] and in test [4] was “binds” each time.
Take CHR17 (from UniProt F4JY24 1-1069): the binding result in test [1] is given as “no binding”; in test [2], “binds”; in test [3] it was “binds”; in test [4], “no binding”.
In the case of “methyl-CpG-binding domain 9 (MBD9), endogenous (from UniProt Q9SGH2 1-2176)”, the binding entry in test [1] and in test [4] was “binds” in each case.
On to “PHOTOPERIOD-… EARLY FLOWERING 1 (from UniProt Q7X9V2 1-2055)”, for which the binding entry in test [1], in test [2], in test [3] and in test [4] was “binds” in each case.

B1: ACTIN-RELATED PROTEIN 6 (ARP6), endogenous (protein, UniProt Q8LGE3 1-421)
chain: T1 sequence
B1: the binding result in test [2] and in test [3] was “binds” in each case.

B2: AL7 (protein, UniProt Q8LA16 1-252)
chain: MEGIQHPIPRTVEEVFSDFRGRRAGLIKALSTDVQKFYHQCDPEKENLCLYGLPNETWEVNLPVEEVPPELPEPALGINFARDGMQEKDWISLVAVHSDSWLISVAFYFGARFGFGKNERKRLFQMINDLPTIFEVVTGNAKQSKDQSANHNSSRSKSSGGKPRHSESHTKASKMSPPPRKEDESGDEDEDDEQGAVCGACGDNYGGDEFWICCDACEKWFHGKCVKITPAKAEHIKHYKCPSCTTSKKMKA
Take B2: the binding entry in test [1] is “binds”.

B3: SWR1 complex subunit 4 (protein, UniProt Q8VZL6 1-441)
chain: MGGTDAKDILGLPKTPLSLTQEKKSRPQKESHRKPDGISREVYALTGGVAPLMPSIDLKRRPPADEKVAWKWLSFTNSARKDDLQLYHWVRVVNDVPPTGDYSFAKYNKSVDILKYTDEEYENHLTDSVWTKEETDQLFEFCQNFDLRFVVIADRFPVSRTVEELKDRYYSVNRALLRARAQSPADVANHPLMKEPYDITRDRERKRALSMVLSQSRHQEKKDAEILAEAKRITEMRLAARRAEEPDVSANENAGLDKADGVVPGRSVSPTSNSQLPATAVAPSTLTMADYASTLASLRMLHVYLRTYGLEQMVQAASSAVGLRTIKRVEQTLQDLGVNLKPKVPTKTVCDEHLELRKEILTLLNLQKQLQYKESEGSSHREGSYAAMPDTPKDRVFAPDPFSFGAERPIKKEQKRKGPGRQADTPSPAHKRPRKLKASDL
Take B3: the binding result in test [1], in test [2], in test [3] and in test [4] was “binds” each time.

B4: YAF9A (protein, UniProt Q9FH40 1-268)
chain: MTNSSSSKKQAQDQPETSEPTLKSLKTKMTKSDEKQKKLKDIEISVPIVYGNVAFWLGKKASEYQSHKWAVYVRGATNEDISVVVKKVVFQLHSSFNSPTRVIEEPPFEVSESGWGEFEIAMTLHFHSDVCDKPLSLYHHLKLYPEDESGPLTMKKPVVVESYDEIVFPDPSESFLARVQNHPALTFPRLPSGYNLPAPMQVEDTGKKKRGDTKDHSLGQWFMSFSEADELLQLAAARQQVQAHIAKLRRQISLLEGQNQTVKTGSDL
For the molecule B4, the binding entry in test [1], in test [2], in test [3] and in test [4] was “binds” in each case.

B5: AL5 (protein, UniProt Q5XEM9 1-260)
chain: MEGGTAHYSPRTVEEVFRDFKGRRAGIIQALTTDVEDFFQQCDPEKQNLCLYGFPNEVWEVNLPAEEVPPELPEPALGINFARDGMQERNWLSLVAVHSDAWLLSVSFYFGSRFGFDRADRKRLFSMINEVPTVYEVVTGNAEKQTKEMPSSANQNGNRSKSNSKMRGLESKSSKTIHAKDEEEGLELEEGEEEEDEDEDEHGETLCGACGDNYASDEFWICCDMCEKWFHGECVKITPARAEHIKHYKCPTCSNKRARP
On to B5, for which the binding result in test [1] and in test [4] was “binds” in each case.

B6: AL4 (protein, UniProt O81488 1-255)
chain: MEAGGAYNPRTVEEVFRDFKGRRAGMIKALTTDVQEFFRLCDPEKENLCLYGHPNEHWEVNLPAEEVPPELPEPVLGINFARDGMAEKDWLSLVAVHSDAWLLAVAFFFGARFGFDKADRKRLFNMVNDLPTIFEVVAGTAKKQGKDKSSVSNNSSNRSKSSSKRGSESRAKFSKPEPKDDEEEEEEGVEEEDEDEQGETQCGACGESYAADEFWICCDLCEMWFHGKCVKITPARAEHIKQYKCPSCSNKRARS
Take B6: the binding entry in test [1] is recorded as “binds”.

B7: SWR1 complex subunit 2 (protein, UniProt F4IP06 1-365)
chain: MEIDEEEPMVFLDRTTRATRGKRMTKLLDDEVEEDEQFWNQEALKEEEHDDEYEAEREVADEFDSDFNDDEPEPDAVAVNEKELRDLPKKRLIYPGKTASKKKKKKTKVVSQLEYIPGDEKPGEELGNKEQEEKEENEAQEDMEGEKVIRKSTRTSVVVRQAERDALRAAIQATTKPIQRKKVGEEKRMTQEEMLLEAAQTEIMNLRNLERVLAREEEVKKKAIVHKAVYKGPQIRYHSKDGCNYLEFCNGASFNSELSTKSVPYPEKAVCVITGLPAKYRDPKTGLPYATRDAFKAIRERFMDEHDGLRKKMEMGDLFDTLVAKGFATKQKRTKIPKSNKSFSLRSSARFLSSESEEESEEDSD
With B7, the binding entry in test [1], in test [2] and in test [4] was “binds” throughout.

B8: SERRATED LEAVES AND EARLY FLOWERING (protein, UniProt Q9FHW2 1-171)
chain: MEEEMSNRRVSNRTRKVATKMAAALTSNDNRTQAAIARLEALENDNGAIEVIDLNDDEEASLDEDDDLGYLQKKQHKGSKRKTRQAKALEARKAPKSFLELLQEANLESLPSHVPTYLKAAVGPPSSSSRRYFCSVCGYIAGYNCCLCGMRFCSIRCQNIHKDTRCQKFVA
Take B8: the binding result in test [1], in test [2] and in test [4] was “binds” throughout.

B9: AL6 (protein, UniProt Q8S8M9 1-256)
chain: MEGITHPIPRTVEEVFSDFRGRRAGLIKALTNDMVKFYQTCDPEKENLCLYGLPNETWEVNLPVEEVPPELPEPALGINFARDGMQEKDWVSLVAVHSDSWLLSVAFYFGARFGFGKNERKRLFQMINELPTIFEVVSGNAKQSKDLSVNNNNSKSKPSGVKSRQSESLSKVAKMSSPPPKEEEEEEDESEDESEDDEQGAVCGACGDNYGTDEFWICCDACEKWFHGKCVKITPAKAEHIKHYKCPTCSNKRARP
For B9, the binding result in test [1], in test [2] and in test [4] was “binds” in each case.

B10: ACTIN-RELATED PROTEIN 4 (protein, UniProt Q84M92 1-441)
chain: MYGGDEVSAIVVDLGSHTCKAGYAGEDAPKAVFPSVIGAVDGVEAMDVDVDSTKTNSNSEDSKTESEKEKSKRKLYVGSQAMSYRRDHMEVLSPIKDGIVSDWDLVDNIWEHAFKSCLMIDPTEHPMLLAEPPLNTQQQREKAAELMFEKYKVPALFMAKNPVLTSFATGRATSLVVDCGGGSTTISPVHDGYVLQKAVVSSPLGGEFLTDCLLKSLESKGIKIRPRYSFKRKEVRAGEFQVEDVDIPDTTESYKLFCQRMIVGDIKDSICRVPDTPYDDKSYSNIPTTSYELPDGQTLEIGADRFKVPDVMFNPSIVQTIPGMEKYAEMIPSVRGLPHMVMESINKCDVDIRRELYSSILLAGGTSSMQQLKERLEKDLIEESPHSARVKVLASGNTTERRFSVWIGGSILASLGSFQQMWFSKSEYEEHGASYIQRKCP
B10: the binding result in test [1], in test [2], in test [3] and in test [4] was “binds” throughout.
